# Measurements reported in PubChem BioAssay AID540276 (National Center for Advancing Translational Sciences (NCATS), 2011).
# The whole screen tested about 300,000 compounds, of which about 5,400 (1.8%) were called active. The shares of active, inactive and inconclusive entries below differ from those in the screen. The call rests on the fitted dose curve; tested in HEK293 cells. Potencies of inconclusive entries are doubtful fits and often do not repeat.
# Experiment: qHTS for inhibitors of binding or entry into cells for Marburg Virus
# Conditions: Marburg virus pseudotyped entry inhibition, cell reporter; series mostly up to 37.8 µM
# Potency means the concentration at half of the fitted maximal effect.
row,Compound,Potency
1,O=C(O)CSc1nnc(CNc2cccc(C(F)(F)F)c2)n1Cc1ccco1,"inconclusive: 29.1 µM [activator, single point]"
2,CCc1nn(CCCC(=O)Nc2ccc(C)c(C)c2)c(=O)c2cc3occc3n12,"inconclusive: 20 µM [inhibitor, partial curve, poor fit]"
3,COc1ccc(CC(=O)NCC(=O)N/N=C/c2sccc2C)cc1,inactive
4,Cc1ccc(C(=O)N/N=C\c2ccc(-c3ccc(Cl)c(Cl)c3)o2)cn1,"inconclusive: 15.8 µM [inhibitor, partial curve, poor fit]"
5,O=C(CS(=O)(=O)Cc1ccccc1)Nc1ccc(Cl)cn1,inactive
6,COc1cc2ncnc(Nc3cccc(Cl)c3)c2cc1OC,"inconclusive: 5.62 µM [inhibitor, partial curve]"
7,COc1ccccc1NC(=O)COC(=O)Cc1c[nH]c2ccccc12,inactive
8,Cc1ccc(C2(CCNCc3ccc(N(C)C)cc3)CCOC(C(C)C)C2)cc1 (centres undefined),"inconclusive: 35.5 µM [inhibitor, single point]"
9,COCCCNC(=O)c1ccc(N2CCOCC2)c(NS(=O)(=O)c2ccc(OC)cc2)c1,inactive
10,CN(C)CCNc1ccc(-c2nn(C)c(=O)c3ccccc23)cc1[N+](=O)[O-],"inconclusive: 2.82 µM [inhibitor, full curve]"
11,CCc1cc2c(=O)c(-c3cnn(-c4ccccc4)c3)c(C)oc2c(CN2CCCCC2)c1O,"inconclusive: 0.103 µM [inhibitor, full curve, poor fit]"
12,Cc1c(NS(=O)(=O)c2ccc(N(C)C3CCCCC3)c([N+](=O)[O-])c2)c(=O)n(-c2ccccc2)n1C,"inconclusive: 35.5 µM [inhibitor, single point]"
13,c1ccc(CN2CCc3[nH]c4ccccc4c3C2)cc1,"inconclusive: 1.78 µM [activator, partial curve, poor fit]"
14,COCCNC(=S)NN(c1ccccc1)c1ccccc1,inactive
15,Cc1cccc(C)c1OCC(=O)Nc1cccc(-c2nnc(-c3ccccc3)o2)c1,"inconclusive: 35.5 µM [inhibitor, single point]"
16,CC(C(=O)NCC1CCCCC1)N1CCN(S(=O)(=O)c2cccs2)CC1 (centres undefined),inactive
17,CC1(C)Cc2nc3oc4c(N5CCOCC5)ncnc4c3cc2CO1,inactive
18,C=CCn1cnc2c(oc3ccccc32)c1=O,inactive
19,CCCCNc1nnc(SCC(=O)N2CCN(S(=O)(=O)c3ccc4ccccc4c3)CC2)s1,"inconclusive: 1.41 µM [inhibitor, partial curve, poor fit]"
20,O=c1[nH]c2ccccc2cc1CN(Cc1cccnc1)S(=O)(=O)c1ccc(Cl)cc1,"inconclusive: 0.562 µM [inhibitor, full curve, poor fit]"
21,O=C1NC(=S)S/C1=C1\Sc2ccccc2N1CCCS(=O)(=O)O,inactive
22,CCCCCCOC1(c2ccccc2)OC(=O)c2ccccc21 (centres undefined),"inconclusive: 0.316 µM [activator, partial curve, poor fit]"

# Looked up above.
# Potency with CCc1nn(CCCC(=O)Nc2ccc(C)c(C)c2)c(=O)c2cc3occc3n12 reads inconclusive: 20 µM [inhibitor, partial curve, poor fit]
# Potency with COc1cc2ncnc(Nc3cccc(Cl)c3)c2cc1OC reads inconclusive: 5.62 µM [inhibitor, partial curve]
# Potency with CN(C)CCNc1ccc(-c2nn(C)c(=O)c3ccccc23)cc1[N+](=O)[O-] reads inconclusive: 2.82 µM [inhibitor, full curve]

# Further results.

row,Compound,Potency
1,CC1=NN(c2ccccc2)C(=O)/C1=C\c1cn(C)c2ccccc12,inactive
2,Cc1ccc(OCCCCCCN2CCNCC2)c(Br)c1,active: 12.6 µM
3,CCN(CC)S(=O)(=O)c1cccc(NC(=O)c2ccc(Br)cc2)c1,inactive
4,O=C(N/N=C/c1ccc2c(c1)OCO2)c1cc(-c2ccco2)nc2ccccc12,"inconclusive: 1.58 µM [inhibitor, partial curve, poor fit]"
5,COc1ccc(C(=O)c2c(C)oc3ccc(O)cc23)c(OC)c1,"inconclusive: 3.98 µM [inhibitor, partial curve, poor fit]"
6,O=C(O)c1ccccc1NS(=O)(=O)c1ccc2c3c(cccc13)C(=O)N2,"inconclusive: 0.116 µM [inhibitor, single point]"
7,COc1ccccc1NC(=O)CCCC(=O)OCC(=O)c1ccc(F)cc1,inactive
8,CCOn1c(=O)c(-c2cccc3ccccc23)[n+]([O-])c2ccccc21,"inconclusive: 3.55 µM [activator, partial curve, poor fit]"
9,COc1ccc2[nH]c3c(c2c1)CCN1C(=O)C(CC(=O)NC(C)(C)C)C[C@H](C(=O)N2CCOCC2)[C@@]31CCC1CCCC1 (some centres undefined),inactive
10,C=CCc1ccccc1OCC(=O)N/N=C/c1ccccc1OCC,"inconclusive: 35.5 µM [inhibitor, single point]"
11,O=S(=O)(Nc1ccc(Br)cc1)N1CCOCC1,inactive
12,CCN1CCN(C(c2ccc(C(F)(F)F)cc2)c2ccc3cccnc3c2O)CC1 (centres undefined),"inconclusive: 14.1 µM [inhibitor, partial curve, poor fit]"
13,O=C1C(Cl)=C(NS(=O)(=O)c2ccc([N+](=O)[O-])cc2)C(=O)c2ccccc21,"inconclusive: 35.5 µM [inhibitor, single point]"
14,COc1ccc(N(CC(=O)Nc2c(C)n(C)n(-c3ccccc3)c2=O)S(=O)(=O)c2ccc(F)cc2)cc1,inactive
15,CCn1nccc1C(=O)Nc1cc(Cl)cc(Cl)c1,"inconclusive: 2.51 µM [inhibitor, single point]"
16,O=C(c1ccc2c(c1)OCO2)N1CCOCC1,"inconclusive: 4.11 µM [activator, partial curve, poor fit]"
17,CCNC(=S)N(CCc1c(C)[nH]c2ccc(C)cc12)Cc1cc(OC)c(OC)c(OC)c1,"inconclusive: 20.6 µM [inhibitor, single point]"
18,CC(C)CN(CC(C)C)c1nc(-c2ccc(Cl)cc2)nc2ccccc12,inactive
19,O=C(C(c1ccccc1)c1ccccc1)N1CCC(c2nc(-c3ccccc3Cl)no2)CC1,"inconclusive: 0.708 µM [activator, partial curve, poor fit]"
20,CC(=O)c1c(C)[nH]c(-c2ccccc2)nc1=S,inactive
21,COc1ccc(C(=O)NC2CCN(C(=O)NC3CCCCC3)CC2)cc1,"inconclusive: 8.91 µM [activator, partial curve, poor fit]"
22,CN1CC(C(=O)c2cccc(C(F)(F)F)c2)C(c2ccc(Cl)cc2)C1 (centres undefined),"inconclusive: 11.2 µM [inhibitor, partial curve, poor fit]"
